Laboratory results taken from US20260125736A1 (FLAREON BIOTECH GMBH, priority 2023, published 2026).

Experiment: general procedure: Fmoc solid-phase peptide synthesis; 2-chlorotrityl chloride resin (CTC-Resin); HOBT/DIC/DIPEA (Biotage) or oxyma/DIC (Liberty Blue)
Conditions: whole synthesis, HPLC and LC-MS, scale of the general procedure 100 μmol

Substance | purity (crude or final not stated)
Ac-EG-K(Dabcyl)-RTAMTAGA-E(Edans)-GE (EGKRTAMTAGAEGE; Ac cap, Dabcyl, Edans; SITE 1 acetylated glutamate; SITE 12 glutamate modified with Edans (5-((2-Aminoethyl)amino)naphthalene-1-sulfonic acid); SITE 3 lysine modified with Dabcyl (4-((4-(Dimethylamino)phenyl)azo)benzoic acid)) | >75%
Ac-K(Dabcyl)-RRARSVAS-E(Edans) (KRRARSVASE; Ac-K(Dabcyl) N-term; E(Edans) C-term; SITE 1 acetylated lysine; SITE 10 glutamate modified with Edans (5-((2-Aminoethyl)amino)naphthalene-1-sulfonic acid); SITE 1 lysine modified with Dabcyl (4-((4-(Dimethylamino)phenyl)azo)benzoic acid)) | >95%
GTAMGAGA | >95%
GTAMTAGA | >95%
RRARSVAS | >95%
RTAGSAGA | >95%
RTAMGAGA | >95%
RTAMSAGA | >95%
RTAMTAGA | >95%
SSARSVAS | >95%

Plain letter strings leave the end groups untold.
